Data from paper PMC8500230.
Results are given in words; binding and its absence hold for the method and conditions named. In cells and extracts the contact can be indirect. Here binding means that the protein was enriched with, or labelled near, the bait; the list need not be complete. For some assays here: A no says only that the protein was not detected with the bait. For some assays here: Sequences can lack the tags named with a protein.

The chains behind the UniProt entries cited, without tags or fusion partners. Where a name states a change or a piece, a line headed by the entry shows the natural chain unless it says otherwise.
UniProt O22467: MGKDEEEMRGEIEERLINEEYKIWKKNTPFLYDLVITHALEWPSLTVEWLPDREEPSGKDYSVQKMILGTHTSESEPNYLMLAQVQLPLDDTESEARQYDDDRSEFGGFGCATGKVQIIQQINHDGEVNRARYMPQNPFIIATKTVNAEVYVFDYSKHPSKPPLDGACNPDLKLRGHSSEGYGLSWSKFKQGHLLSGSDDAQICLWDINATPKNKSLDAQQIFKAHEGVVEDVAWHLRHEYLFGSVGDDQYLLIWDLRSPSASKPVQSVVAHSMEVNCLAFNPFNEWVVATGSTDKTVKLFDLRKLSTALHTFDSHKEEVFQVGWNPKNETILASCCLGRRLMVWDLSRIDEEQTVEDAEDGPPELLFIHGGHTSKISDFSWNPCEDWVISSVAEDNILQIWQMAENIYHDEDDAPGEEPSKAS
UniProt Q9FV71: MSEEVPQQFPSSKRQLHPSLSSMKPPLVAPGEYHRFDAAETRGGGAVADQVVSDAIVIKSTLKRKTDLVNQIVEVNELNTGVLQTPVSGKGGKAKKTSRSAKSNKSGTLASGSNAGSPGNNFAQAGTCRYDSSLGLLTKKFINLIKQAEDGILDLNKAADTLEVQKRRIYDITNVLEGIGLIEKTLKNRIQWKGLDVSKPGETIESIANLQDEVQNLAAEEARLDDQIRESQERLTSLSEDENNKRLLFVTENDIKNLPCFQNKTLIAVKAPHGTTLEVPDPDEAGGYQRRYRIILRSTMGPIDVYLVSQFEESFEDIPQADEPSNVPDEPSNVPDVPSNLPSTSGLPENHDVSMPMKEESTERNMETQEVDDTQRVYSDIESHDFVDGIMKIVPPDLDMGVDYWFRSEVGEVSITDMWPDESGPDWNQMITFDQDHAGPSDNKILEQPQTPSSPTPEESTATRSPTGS
UniProt P24100: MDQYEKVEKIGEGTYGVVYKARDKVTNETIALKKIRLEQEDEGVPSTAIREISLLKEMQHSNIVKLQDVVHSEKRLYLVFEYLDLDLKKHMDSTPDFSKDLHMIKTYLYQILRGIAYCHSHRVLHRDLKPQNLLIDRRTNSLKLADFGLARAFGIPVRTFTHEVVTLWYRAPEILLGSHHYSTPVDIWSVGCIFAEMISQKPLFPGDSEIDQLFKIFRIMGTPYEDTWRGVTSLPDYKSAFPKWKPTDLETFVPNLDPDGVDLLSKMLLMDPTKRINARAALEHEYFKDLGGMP
UniProt Q8LSZ4: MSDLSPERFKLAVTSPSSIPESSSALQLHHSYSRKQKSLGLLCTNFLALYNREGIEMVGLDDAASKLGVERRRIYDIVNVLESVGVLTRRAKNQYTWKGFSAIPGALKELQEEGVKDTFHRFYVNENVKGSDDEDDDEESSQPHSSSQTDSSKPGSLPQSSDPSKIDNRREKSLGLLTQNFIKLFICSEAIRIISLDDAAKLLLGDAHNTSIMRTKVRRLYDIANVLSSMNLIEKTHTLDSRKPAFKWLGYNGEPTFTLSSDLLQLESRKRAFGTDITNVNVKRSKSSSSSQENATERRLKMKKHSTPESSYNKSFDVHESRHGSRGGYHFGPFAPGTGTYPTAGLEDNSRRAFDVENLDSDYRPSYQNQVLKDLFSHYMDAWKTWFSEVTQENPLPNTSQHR
UniProt F4IWE2: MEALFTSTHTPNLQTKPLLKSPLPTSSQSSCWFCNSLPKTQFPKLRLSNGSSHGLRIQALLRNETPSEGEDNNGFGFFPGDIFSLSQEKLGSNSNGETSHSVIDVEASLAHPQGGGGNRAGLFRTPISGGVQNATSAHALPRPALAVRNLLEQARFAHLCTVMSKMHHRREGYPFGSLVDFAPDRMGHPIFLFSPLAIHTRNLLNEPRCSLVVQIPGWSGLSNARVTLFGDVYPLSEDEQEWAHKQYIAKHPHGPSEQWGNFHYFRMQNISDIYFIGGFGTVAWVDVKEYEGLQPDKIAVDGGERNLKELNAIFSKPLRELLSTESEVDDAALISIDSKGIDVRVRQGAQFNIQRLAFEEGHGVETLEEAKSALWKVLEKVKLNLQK
UniProt F4JTM3: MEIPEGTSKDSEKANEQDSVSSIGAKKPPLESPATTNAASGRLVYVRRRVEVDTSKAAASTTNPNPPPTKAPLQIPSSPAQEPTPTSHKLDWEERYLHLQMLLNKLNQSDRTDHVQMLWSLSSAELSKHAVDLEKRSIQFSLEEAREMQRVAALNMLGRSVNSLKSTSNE
UniProt F4J4R5: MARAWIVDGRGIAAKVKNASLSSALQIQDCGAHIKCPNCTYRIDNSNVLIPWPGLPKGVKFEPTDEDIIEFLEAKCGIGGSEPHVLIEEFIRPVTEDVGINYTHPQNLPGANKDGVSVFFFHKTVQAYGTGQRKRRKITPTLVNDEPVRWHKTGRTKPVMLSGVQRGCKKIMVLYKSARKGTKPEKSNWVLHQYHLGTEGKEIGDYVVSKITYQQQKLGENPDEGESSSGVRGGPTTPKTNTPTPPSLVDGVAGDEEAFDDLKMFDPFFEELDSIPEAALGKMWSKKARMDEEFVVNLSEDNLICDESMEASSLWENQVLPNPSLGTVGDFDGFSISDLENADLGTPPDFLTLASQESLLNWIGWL

Each substance was assayed against T1, DPB-3xCFP (Arabidopsis thaliana) (UniProt Q9FNY2) (assay: affinity purification with mass spectrometry; FP-IP: anti-GFP antibody on magnetic beads, total protein extracts (4 mg/IP) of Arabidopsis seedlings expressing the GFP- or CFP-tagged bait under its own promoter; GFP alone as control; standard conditions, various growth regimes (meta-analysis of 182 IPs), with or without 50 uM cisplatin for 24 h; label-free LC-MS/MS).
T1 sequence: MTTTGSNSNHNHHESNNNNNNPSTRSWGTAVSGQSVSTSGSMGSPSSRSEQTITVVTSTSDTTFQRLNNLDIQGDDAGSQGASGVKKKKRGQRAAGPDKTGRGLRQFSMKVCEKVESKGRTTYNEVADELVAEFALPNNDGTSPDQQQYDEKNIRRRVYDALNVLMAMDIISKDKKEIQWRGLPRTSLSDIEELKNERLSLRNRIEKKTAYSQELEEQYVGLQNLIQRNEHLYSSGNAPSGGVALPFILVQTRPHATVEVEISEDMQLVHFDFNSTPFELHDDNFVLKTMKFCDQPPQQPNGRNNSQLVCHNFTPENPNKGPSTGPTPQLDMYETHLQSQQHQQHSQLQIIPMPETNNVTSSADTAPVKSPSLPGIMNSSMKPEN

Substance	binding
MSI1 (from UniProt O22467 1-424)	binds
LIN37B	binds
LIN37A	binds
LIN52A/DRC1	binds

The substances below were run against E2FB-GFP (Arabidopsis thaliana) (UniProt Q9FV71) in the same assay as above.

Substance	binding
MSI1 (from UniProt O22467 1-424)	binds

What follows are substances tested against T2, DPA-GFP (Arabidopsis thaliana) (UniProt Q9FNY3) in the same assay as above.
T2 sequence: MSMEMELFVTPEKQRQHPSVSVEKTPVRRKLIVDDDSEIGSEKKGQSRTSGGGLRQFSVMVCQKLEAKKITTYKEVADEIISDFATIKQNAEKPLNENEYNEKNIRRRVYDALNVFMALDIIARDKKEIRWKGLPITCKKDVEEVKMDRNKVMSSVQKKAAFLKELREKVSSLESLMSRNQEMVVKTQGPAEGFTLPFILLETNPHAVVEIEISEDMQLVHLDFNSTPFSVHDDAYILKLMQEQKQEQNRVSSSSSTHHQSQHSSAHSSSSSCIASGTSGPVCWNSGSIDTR

Substance	binding
MSI1 (from UniProt O22467 1-424)	binds
LIN52A/DRC1	binds

What follows are substances tested against T3, E2FC-GFP (Arabidopsis thaliana) (UniProt Q9FV70) in the same assay as above.
T3 sequence: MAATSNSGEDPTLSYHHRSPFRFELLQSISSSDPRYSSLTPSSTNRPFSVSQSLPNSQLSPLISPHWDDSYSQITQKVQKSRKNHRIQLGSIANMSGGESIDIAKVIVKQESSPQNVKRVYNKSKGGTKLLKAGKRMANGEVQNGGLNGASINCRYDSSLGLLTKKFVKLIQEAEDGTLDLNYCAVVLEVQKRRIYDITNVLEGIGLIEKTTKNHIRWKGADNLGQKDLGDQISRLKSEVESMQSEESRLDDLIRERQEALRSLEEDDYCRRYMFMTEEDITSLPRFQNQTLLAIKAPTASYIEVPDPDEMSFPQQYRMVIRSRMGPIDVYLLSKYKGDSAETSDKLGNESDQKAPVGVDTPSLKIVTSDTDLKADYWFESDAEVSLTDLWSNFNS

Substance	binding
MSI1 (from UniProt O22467 1-424)	binds
LIN37B	binds
LIN37A	binds
LIN52A/DRC1	binds

The substances below were run against T4, RBR1-GFP (Arabidopsis thaliana) (UniProt Q9LKZ3) in the same assay as above.
T4 sequence: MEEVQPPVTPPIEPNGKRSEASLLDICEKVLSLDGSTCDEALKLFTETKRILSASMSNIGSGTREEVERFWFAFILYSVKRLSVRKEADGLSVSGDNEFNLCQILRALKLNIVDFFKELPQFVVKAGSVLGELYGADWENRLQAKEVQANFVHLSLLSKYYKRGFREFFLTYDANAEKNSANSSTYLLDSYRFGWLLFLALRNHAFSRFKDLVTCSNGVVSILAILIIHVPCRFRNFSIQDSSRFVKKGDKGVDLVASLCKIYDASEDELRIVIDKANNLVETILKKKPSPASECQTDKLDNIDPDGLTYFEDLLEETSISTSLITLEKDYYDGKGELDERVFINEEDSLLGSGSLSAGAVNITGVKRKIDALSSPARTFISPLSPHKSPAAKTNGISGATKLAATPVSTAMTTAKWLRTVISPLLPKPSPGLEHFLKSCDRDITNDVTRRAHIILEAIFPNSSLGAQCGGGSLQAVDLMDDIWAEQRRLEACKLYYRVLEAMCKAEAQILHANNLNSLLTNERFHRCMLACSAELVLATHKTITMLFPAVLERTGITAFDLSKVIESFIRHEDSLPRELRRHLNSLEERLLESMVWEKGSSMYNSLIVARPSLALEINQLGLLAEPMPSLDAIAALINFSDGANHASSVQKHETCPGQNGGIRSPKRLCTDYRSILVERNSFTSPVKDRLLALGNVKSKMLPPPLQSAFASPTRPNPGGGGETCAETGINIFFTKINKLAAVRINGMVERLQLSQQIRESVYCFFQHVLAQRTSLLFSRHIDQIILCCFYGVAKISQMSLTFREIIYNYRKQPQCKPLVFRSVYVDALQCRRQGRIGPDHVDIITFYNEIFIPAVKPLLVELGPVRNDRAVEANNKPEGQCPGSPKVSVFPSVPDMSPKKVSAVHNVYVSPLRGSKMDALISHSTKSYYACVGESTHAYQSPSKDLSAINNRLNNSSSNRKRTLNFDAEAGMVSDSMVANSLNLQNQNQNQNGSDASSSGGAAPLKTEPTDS

Substance	binding
MSI1 (from UniProt O22467 1-424)	binds
LIN37A	binds
LIN52A/DRC1	binds

Each substance was assayed against T5, C-terminally tagged TCX5 (TAP bait) (Arabidopsis thaliana) (UniProt Q9SZD1) (assay: affinity purification with mass spectrometry; tandem affinity purification (GS^rhino tag) from Arabidopsis PSB-D cell suspension cultures expressing the tagged bait under the 35S promoter; 30 uM cisplatin added 16 h before harvest; 100 mg total protein extract; on-bead digest, LC-MS/MS; in …).
T5 sequence: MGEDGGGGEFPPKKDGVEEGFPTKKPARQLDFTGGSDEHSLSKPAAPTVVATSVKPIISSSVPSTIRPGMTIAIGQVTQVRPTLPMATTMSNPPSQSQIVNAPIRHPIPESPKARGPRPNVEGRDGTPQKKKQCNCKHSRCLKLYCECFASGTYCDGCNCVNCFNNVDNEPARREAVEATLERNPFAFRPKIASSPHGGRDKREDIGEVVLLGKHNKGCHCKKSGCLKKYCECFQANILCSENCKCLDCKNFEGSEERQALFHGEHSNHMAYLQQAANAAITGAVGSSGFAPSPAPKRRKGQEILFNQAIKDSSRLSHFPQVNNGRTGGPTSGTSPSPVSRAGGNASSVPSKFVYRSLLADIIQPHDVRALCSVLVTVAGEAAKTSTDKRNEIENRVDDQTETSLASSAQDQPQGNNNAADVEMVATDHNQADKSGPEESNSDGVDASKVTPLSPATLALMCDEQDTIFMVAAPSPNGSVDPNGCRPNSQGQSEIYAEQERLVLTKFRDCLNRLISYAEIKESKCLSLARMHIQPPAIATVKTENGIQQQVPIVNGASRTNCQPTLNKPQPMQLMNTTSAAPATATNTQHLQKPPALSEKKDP

Substance	binding
CDKA;1 (from UniProt P24100 1-294)	no binding
MSI1 (from UniProt O22467 1-424)	binds
LIN37B	binds
LIN37A	binds
E2FE/DEL1 (from UniProt Q8LSZ4 1-403)	binds
LIN52A/DRC1	binds

Each substance was assayed against T6, tagged TCX5 (TAP bait, tag end not told for this result) (Arabidopsis thaliana) (UniProt Q9SZD1) in the same assay as above.
T6 sequence: T5 sequence

Substance	binding
ONEIRIC 1 (ONE1) (from UniProt F4IWE2)	binds

What follows are substances tested against N-terminally tagged RBR1 (TAP bait) (Arabidopsis thaliana) (UniProt Q9LKZ3) in the same assay as above.

Substance	binding
LIN52B (from UniProt F4JTM3)	no binding
NAC044 (from UniProt F4J4R5)	binds
MSI1 (from UniProt O22467 1-424)	binds
E2FE/DEL1 (from UniProt Q8LSZ4 1-403)	no binding

Each substance was assayed against T7, N-terminally tagged TCX5 (TAP bait) (Arabidopsis thaliana) (UniProt Q9SZD1) in the same assay as above.
T7 sequence: T5 sequence

Substance	binding
LIN52B (from UniProt F4JTM3)	binds
CDKA;1 (from UniProt P24100 1-294)	no binding
MSI1 (from UniProt O22467 1-424)	binds
LIN37B	binds
LIN37A	binds
E2FE/DEL1 (from UniProt Q8LSZ4 1-403)	binds
LIN52A/DRC1	binds
